Measurements: patent US8216786B2, “Genetic polymorphisms associated with cardiovascular diseases, methods of detection and uses thereof” (Celera Corporation, priority 2008, dated 2012)
Further values from the same series stand in other lists.

Tested on: individuals who have previously had an MI
Assay: CARE trial: effect of pravastatin vs placebo on coronary events (endpt1, rmi) by SNP genotype subgroup
Type: in vivo, human
Description: In Tables 21-22, the column labeled “Endpoint” indicates whether the endpoint that was analyzed was the primary endpoint of the CARE study (a composite endpoint of fatal coronary event or nonfatal MI, and identified as “endpt1”) or a composite endpoint of confirmed fatal or nonfatal MI (identified as “rmi”). […] As used herein, the term “benefit” (with respect to a preventive or therapeutic drug treatment) is defined as achieving a reduced risk for a disease that the drug is intended to treat or prevent (e.g., CVD such as CHD, particularly MI, or hypertension) by administering the drug treatment, compared with the risk for the disease in the absence of receiving the drug treatment (or receiving a placebo in lieu of the drug treatment) for the same genotype. […] J. […] (1996) New England Journal of Medicine 335: 1001-1009. […] A well-documented MI was one of the enrollment criteria for entry into the CARE study. Patients were enrolled in the CARE trial from 80 participating study centers. […] For the study of CARE described in this Example and shown in Tables 21-22, two endpoints were investigated: the primary endpoint of CARE (a composite endpoint of fatal coronary event or nonfatal MI, and identified as “endpt1” in the Endpoint column of Tables 21-22) and a composite endpoint of confirmed fatal or nonfatal MI (identified as “rmi” in the Endpoint column of Tables 21-22). […] HR stands for Hazard Ratio, which is a concept similar to Odds Ratio (OR). The HR in event-free survival analysis is the effect of an explanatory variable on the hazard or risk of an event. […] In Table 21, p-interaction values were calculated. An interaction (or effect modification) is formed when a third variable modifies the relation between an exposure and outcome. […] Genotype and drug interaction is present when the effect of statins (incidence rate of disease in statin-treated group, as compared to placebo) differs in patients with different genotypes.

[1] = endpt1, hCV7618856 rs1143675 ITGA4, TT
[2] = endpt1, hCV7841642 rs11666735 FCAR, AG + AA
[3] = endpt1, hCV7841642 rs11666735 FCAR, GG
[4] = endpt1, hCV7900503 rs3732379 CX3CR1, CC
[5] = endpt1, hCV7900503 rs3732379 CX3CR1, TC + TT
[6] = endpt1, hCV16189421 rs1048755 ATXN3, CC
[7] = endpt1, hCV16189421 rs1048755 ATXN3, TC + TT
[8] = endpt1, hCV25651174 rs9277356 HLA-DPB1, AA
[9] = endpt1, hCV25767417 rs3803430 ALDH1A3, AA
[10] = endpt1, hCV25767417 rs3803430 ALDH1A3, GA + GG
[11] = endpt1, hCV25922320 rs12360861 CD6, AG + AA
[12] = endpt1, hCV25922320 rs12360861 CD6, GG
[13] = endpt1, hCV25922440 rs34362748 GALC, CC
[14] = endpt1, hCV25922440 rs34362748 GALC, TC + TT
[15] = endpt1, hCV25922816 rs36013429 PPOX, AG + AA
[16] = endpt1, hCV25922816 rs36013429 PPOX, GG
[17] = endpt1, hCV25926178 rs12882130 MARK3, CC
[18] = endpt1, hCV25926178 rs12882130 MARK3, GC + GG
[19] = endpt1, hCV25926771 rs4906321 MARK3, CT + CC
[20] = endpt1, hCV25926771 rs4906321 MARK3, TT
[21] = endpt1, hCV25927605 HLA-DPA1, CC
[22] = endpt1, hCV25927605 HLA-DPA1, TC + TT
[23] = endpt1, hCV25928135 ADAM12, CT + CC
[24] = endpt1, hCV25941408 rs28497577 MYLK, GG
[25] = endpt1, hCV25941408 rs28497577 MYLK, TG + TT
[26] = endpt1, hCV25942539 rs2401751 PTPN21, AG + AA
[27] = endpt1, hCV25942539 rs2401751 PTPN21, GG
[28] = endpt1, hCV26000635 rs7020782 PAPPA, AA
[29] = endpt1, hCV26000635 rs7020782 PAPPA, CA + CC
[30] = endpt1, hCV2038 rs4673 CYBA, Strata AG + AA
[31] = endpt1, hCV2038 rs4673 CYBA, Strata GG
[32] = endpt1, hCV22303 rs4552916, strata AA
[33] = endpt1, hCV22303 rs4552916, strata GA
[34] = endpt1, hCV22303 rs4552916, strata GG
[35] = endpt1, hCV260164 rs6754295, strata GG
[36] = endpt1, hCV260164 rs6754295, strata TG + TT
[37] = endpt1, hCV461035 rs7746448, strata TC + CC
[38] = endpt1, hCV461035 rs7746448, strata TT
[39] = endpt1, hCV601946 rs524802 ZNF568, strata AA
[40] = endpt1, hCV601946 rs524802 ZNF568, strata AG
[41] = endpt1, hCV601946 rs524802 ZNF568, strata GG
[42] = endpt1, hCV601961 rs568654 ZNF568, strata AA
[43] = endpt1, hCV601961 rs568654 ZNF568, strata AG + GG
[44] = endpt1, hCV601962 rs544543 ZNF568, strata AA
[45] = endpt1, hCV601962 rs544543 ZNF568, strata GA
[46] = endpt1, hCV601962 rs544543 ZNF568, strata GG
[47] = endpt1, hCV610861 rs636887, strata CC
[48] = endpt1, hCV610861 rs636887, strata TC + TT
[49] = endpt1, hCV922535 rs748065, strata AA
[50] = endpt1, hCV922535 rs748065, strata GA
[51] = endpt1, hCV922535 rs748065, strata GG

CC[C@H](C)C(=O)O[C@H]1C[C@H](O)C=C2C=C[C@H](C)[C@H](CC[C@@H](O)C[C@@H](O)CC(=O)O)[C@H]21 [pravastatin]
NONEVENT (Pravastatin arm) (endpt1, hCV7618856 rs1143675 ITGA4, CT + CC): 19 | EVENTS (Pravastatin arm) [1]: 127 | NONEVENT (Pravastatin arm) [1]: 1264 | EVENTS (Pravastatin arm) [2]: 13 | NONEVENT (Pravastatin arm) [2]: 183 | EVENTS (Pravastatin arm) [3]: 120 | NONEVENT (Pravastatin arm) [3]: 1108 | EVENTS (Pravastatin arm) [4]: 68 | NONEVENT (Pravastatin arm) [4]: 677 | EVENTS (Pravastatin arm) [5]: 65 | NONEVENT (Pravastatin arm) [5]: 614 | EVENTS (Pravastatin arm) [6]: 68 | NONEVENT (Pravastatin arm) [6]: 729 | EVENTS (Pravastatin arm) [7]: 65 | NONEVENT (Pravastatin arm) [7]: 526 | EVENTS (Pravastatin arm) [8]: 57 | NONEVENT (Pravastatin arm) [8]: 643 | EVENTS (Pravastatin arm) [9]: 130 | NONEVENT (Pravastatin arm) [9]: 1239 | EVENTS (Pravastatin arm) [10]: 3 | NONEVENT (Pravastatin arm) [10]: 52 | EVENTS (Pravastatin arm) [11]: 62 | NONEVENT (Pravastatin arm) [11]: 439 | EVENTS (Pravastatin arm) [12]: 70 | NONEVENT (Pravastatin arm) [12]: 850 | EVENTS (Pravastatin arm) [13]: 103 | NONEVENT (Pravastatin arm) [13]: 881 | EVENTS (Pravastatin arm) [14]: 30 | NONEVENT (Pravastatin arm) [14]: 377 | EVENTS (Pravastatin arm) [15]: 14 | NONEVENT (Pravastatin arm) [15]: 184 | EVENTS (Pravastatin arm) [16]: 119 | NONEVENT (Pravastatin arm) [16]: 1075 | EVENTS (Pravastatin arm) [17]: 52 | NONEVENT (Pravastatin arm) [17]: 478 | EVENTS (Pravastatin arm) [18]: 80 | NONEVENT (Pravastatin arm) [18]: 786 | EVENTS (Pravastatin arm) [19]: 79 | NONEVENT (Pravastatin arm) [19]: 778 | EVENTS (Pravastatin arm) [20]: 53 | NONEVENT (Pravastatin arm) [20]: 482 | EVENTS (Pravastatin arm) [21]: 122 | NONEVENT (Pravastatin arm) [21]: 1206 | EVENTS (Pravastatin arm) [22]: 10 | NONEVENT (Pravastatin arm) [22]: 80 | EVENTS (Pravastatin arm) [23]: 41 | NONEVENT (Pravastatin arm) [23]: 479 | EVENTS (Pravastatin arm) (endpt1, hCV25928135 ADAM12, TT): 92 | NONEVENT (Pravastatin arm) (endpt1, hCV25928135 ADAM12, TT): 785 | EVENTS (Pravastatin arm) [24]: 115 | NONEVENT (Pravastatin arm) [24]: 1052 | EVENTS (Pravastatin arm) [25]: 18 | NONEVENT (Pravastatin arm) [25]: 238 | EVENTS (Pravastatin arm) [26]: 63 | NONEVENT (Pravastatin arm) [26]: 700 | EVENTS (Pravastatin arm) [27]: 70 | NONEVENT (Pravastatin arm) [27]: 559 | EVENTS (Pravastatin arm) [28]: 51 | NONEVENT (Pravastatin arm) [28]: 624 | EVENTS (Pravastatin arm) [29]: 82 | NONEVENT (Pravastatin arm) [29]: 665 | EVENTS (Pravastatin arm) [30]: 89 | NONEVENT (Pravastatin arm) [30]: 728 | EVENTS (Pravastatin arm) [31]: 44 | NONEVENT (Pravastatin arm) [31]: 563 | EVENTS (Pravastatin arm) [32]: 86 | NONEVENT (Pravastatin arm) [32]: 788 | EVENTS (Pravastatin arm) [33]: 37 | NONEVENT (Pravastatin arm) [33]: 408 | EVENTS (Pravastatin arm) [34]: 13 | NONEVENT (Pravastatin arm) [34]: 70 | EVENTS (Pravastatin arm) [35]: 9 | NONEVENT (Pravastatin arm) [35]: 68 | EVENTS (Pravastatin arm) [36]: 127 | NONEVENT (Pravastatin arm) [36]: 1195 | EVENTS (Pravastatin arm) [37]: 89 | NONEVENT (Pravastatin arm) [37]: 785 | EVENTS (Pravastatin arm) [38]: 47 | NONEVENT (Pravastatin arm) [38]: 481 | EVENTS (Pravastatin arm) [39]: 17 | NONEVENT (Pravastatin arm) [39]: 175 | EVENTS (Pravastatin arm) [40]: 74 | NONEVENT (Pravastatin arm) [40]: 554 | EVENTS (Pravastatin arm) [41]: 45 | NONEVENT (Pravastatin arm) [41]: 536 | EVENTS (Pravastatin arm) [42]: 18 | NONEVENT (Pravastatin arm) [42]: 190 | EVENTS (Pravastatin arm) [43]: 118 | NONEVENT (Pravastatin arm) [43]: 1072 | EVENTS (Pravastatin arm) [44]: 44 | NONEVENT (Pravastatin arm) [44]: 522 | EVENTS (Pravastatin arm) [45]: 71 | NONEVENT (Pravastatin arm) [45]: 545 | EVENTS (Pravastatin arm) [46]: 18 | NONEVENT (Pravastatin arm) [46]: 191 | EVENTS (Pravastatin arm) [47]: 28 | NONEVENT (Pravastatin arm) [47]: 247 | EVENTS (Pravastatin arm) [48]: 108 | NONEVENT (Pravastatin arm) [48]: 1017 | EVENTS (Pravastatin arm) [49]: 74 | NONEVENT (Pravastatin arm) [49]: 611 | EVENTS (Pravastatin arm) [50]: 48 | NONEVENT (Pravastatin arm) [50]: 541 | EVENTS (Pravastatin arm) [51]: 14 | NONEVENT (Pravastatin arm) [51]: 114
